Results on 40 molecules are retold here after PubChem BioAssay AID493014 (National Center for Advancing Translational Sciences (NCATS), 2011).

Some of the results follow. The main result of the screen is listed elsewhere. These columns were measured beside it and carry no call. Compounds called inactive in the main read-out are mostly missing here. Potencies come from curve fits of mixed quality, noted in brackets.

The nature of the experiment: qHTS Assay to Find Inhibitors of Chronic Active B-Cell Receptor Signaling. The settings on record: ABC-DLBCL IkBa-CBG/CBR reporter, luminescence ratio (green luciferase fused to IkBa over red control in TMD8 lymphoma cells), 4 h. Put shortly:
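TMD8 ABC-DLBCL cells carrying doxycycline-inducible green luciferase fused to IkappaBalpha plus unfused red luciferase were exposed to compounds (up to 46 uM) for 4 hrs at 37C. Activity came from the overlap-corrected green/red luminescence ratio.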

Where [1] appears, read: measured here: CBR red luminescence, cell number.
Setting [2] is: measured here: IkBa-CBG green luminescence.

For the molecule `Cc1cccc(/C(N)=N/OC(=O)c2ccc(Br)o2)c1`, under setting [1], the AC50 was 2.06 µM [rising, partial curve, poor fit]. The same measure, in the same setting: as for `N#CC(/C(=N/S(=O)(=O)c1cccs1)c1ccccc1)c1nc2ccccc2[nH]1` (stereo unspecified), the figure is 2.91 µM [rising, full curve, poor fit]; as for `Cc1cc(C)cc(NC(=O)N2CCCC2C(=O)NCc2ccco2)c1` (stereo unspecified), 1.41 µM [falling, full curve, poor fit]. The same measure, in the same setting: for `FC(F)(F)c1nc2ccccc2nc1N/N=C/c1c(Cl)cccc1Cl` the value was 32.6 µM [falling, partial curve, poor fit]; for `O=S(=O)(c1ccccc1)N1CCN=C1SCc1ccccc1Cl`, 5.01 µM [rising, partial curve, poor fit]; for `CC(=O)Nc1ccc(S(=O)(=O)N(C)CC(=O)NC2CCCC(C)C2C)cc1` (stereo unspecified), 11.6 µM [rising, partial curve]. Still for that read-out and setting: for `CSc1nc2ccc(NC(=O)c3c(F)cccc3F)cc2s1` the value was 15.8 µM [falling, single point]; for `CCNC(=O)NC(=O)CSc1ccc(S(=O)(=O)N2CCCCC2)cn1`, 29.1 µM [rising, partial curve, poor fit]; for `FC(F)(F)c1nnc2c(Sc3ccccc3)nc3ccccc3n12`, 9.2 µM [falling, partial curve]. With `COc1ccccc1/C=C1\SC(=S)N(CCC(=O)NC2=NCCS2)C1=O`, the AC50 under setting [1] is 1.84 µM [falling, full curve] and the AC50 under setting [2] is 23.1 µM [rising, partial curve, poor fit].

For the molecule `Cc1ccc(NC(=O)c2cc(S(=O)(=O)N3CCOCC3)cn2C)cc1Cl`, the AC50 under setting [1] is 14.1 µM [falling, single point].

Consider `CN(c1cccc(NC(=O)c2ccc(Cl)c(S(=O)(=O)Nc3ccccc3)c2)c1)S(C)(=O)=O`, for which the AC50 under setting [1] was 14.6 µM [falling, partial curve, poor fit]. Same read-out and setting: as for `Cc1cc(C)c2[nH]c(O)c(N=Nc3ccc(C(=O)O)cc3)c2c1`, the figure is 0.447 µM [falling, full curve].

Consider `Cc1cc2nc(SCCOC(=O)Nc3cccc(Cl)c3)nc(C)c2cc1C`, for which the AC50 under setting [1] is 2.59 µM [rising, partial curve, poor fit].

Take `O=C1C(Cl)=C(N2CCCCCC2)C(=O)N1c1ccccc1`: under setting [1], the AC50 was 11.2 µM [falling, partial curve]. With `COc1ccccc1/C=N/NC(=O)c1ccc2c(c1)OCO2`, the AC50 under setting [1] is 7.08 µM [falling, partial curve]. The same measure, in the same setting: as for `CC(Sc1ncnc2ccccc12)C(=O)Nc1ccc2c(c1)OCO2` (stereo unspecified), the figure is 3.16 µM [falling, full curve]; as for `CCN(CC)CCCn1c2c(c(SCC(=O)Nc3nccs3)nc1=O)CCC2`, 9.2 µM [falling, partial curve].

Take `CC(C)c1nc(SCC(=O)N2CCCC2)c2ccccc2n1`: under setting [1], the AC50 was 12.6 µM [falling, single point]. Still for that read-out and setting: for `CN(Cc1ccccc1)C(=O)c1ccc(NC(=O)Cc2cccc(NC(=O)C3CCN(C(=O)C4CC4)CC3)c2)cc1` the value was 1.3 µM [falling, full curve, poor fit]. On the same count and under the same terms, as for `COc1ccc(/C=N/NC(=O)c2cc(-c3ccccc3)nc3ccccc23)cc1O`, the figure is 35.5 µM [falling, single point]. Same read-out and setting: for `Nc1cccc(-c2nc3ccc(N)cc3s2)c1` the value was 10 µM [falling, partial curve]; for `Cc1ccc(-n2c(-c3ccccc3)c[n+]3c2CCc2ccccc2-3)c(C)c1`, 28.2 µM [falling, single point].

For the molecule `CC(=O)Nc1nc2cc([N+](=O)[O-])ccc2s1`, the AC50 under setting [1] is 7.31 µM [falling, single point].

For the molecule `Cc1cc2c(c(=O)o1)C1O[C@](CCCCN3C(=O)c4ccccc4C3=O)(Cc3cc(C#N)ccc31)O2`, the AC50 under setting [2] is 5.62 µM [rising, partial curve, poor fit].

As for `O=C1[C@@H]2[C@H](C(=O)N1n1cnnc1)[C@H]1C=C[C@@H]2C1`, the AC50 under setting [1] was 11.2 µM [rising, partial curve, poor fit]. On the same count and under the same terms, for `CCCCOc1cccc(C2(C(=O)O)CCCC2)c1` the value was 29.1 µM [falling, single point]; for `COC(=O)c1ccc(Oc2ccc(S(=O)(=O)N3CCCCC3)cc2N)cc1`, 17.8 µM [falling, single point]; for `COc1ccc(S(=O)(=O)NCc2ccc(C(=O)N(C)Cc3ccco3)cc2)cc1`, 20.6 µM [rising, partial curve, poor fit]. The same measure, in the same setting: as for `N#C/C(=C\c1ccc(-c2ccc(C(=O)O)cc2)o1)c1nc2ccccc2[nH]1`, the figure is 0.316 µM [falling, full curve, poor fit]. Consider `O=C(Nc1nc2ccccc2s1)C1CCN(S(=O)(=O)c2cc([N+](=O)[O-])ccc2Cl)CC1`, for which, under setting [1], the AC50 is 11.2 µM [falling, partial curve, poor fit]. Still for that read-out and setting: for `Cc1cc(O)c(C(=O)Nc2cccc(Cl)c2)c(=O)n1C` the value was 5.62 µM [rising, full curve, poor fit]; for `COC(=O)[C@@H](Cc1ccccc1)NC(=O)NCCc1ccccc1`, 12.6 µM [rising, single point]. Consider `O=[N+]([O-])c1ccc(O)c(/C=N/Nc2ccccc2[N+](=O)[O-])c1`, for which, under setting [1], the concentration at half-maximal activity (AC50) is 2.51 µM [rising, partial curve, poor fit]. Consider `CC(C)CCNC(=O)C(=O)NC1CCCC1`, for which the AC50 under setting [1] is 18.4 µM [falling, partial curve, poor fit].

Consider `O=C(O)CNC(=O)c1ccccc1NC(=O)c1ccco1`, for which the AC50 under setting [1] is 29.1 µM [falling, single point]. Same read-out and setting: as for `COc1ccccc1-n1ccnc(SCC(=O)NCCc2ccccc2)c1=O`, the figure is 8.2 µM [falling, partial curve]; as for `O=c1c2cc(NC(=S)N3CCC(N4CCCCC4)CC3)ccc2nc2n1CCCCC2`, 14.1 µM [falling, partial curve, poor fit]; as for `Cc1cc(NC(=O)CN2C(=O)C3CC=CCC3C2=O)no1` (stereo unspecified), 11.6 µM [falling, partial curve, poor fit]. The same measure, in the same setting: for `Cc1cc(C)n(-c2nc(SCC(=O)Nc3nccs3)c3c4c(sc3n2)COC(C)(C)C4)n1` the value was 4.47 µM [rising, single point].
